From article PMC11633376
These are yes or no findings as the source states them, for the method shown. Binding seen in cells or lysates may run through a third protein. Here binding means that the protein was enriched with, or labelled near, the bait; the list need not be complete.

Amino acid sequences for entries named in this document (tags omitted).
UniProt A0R0B3: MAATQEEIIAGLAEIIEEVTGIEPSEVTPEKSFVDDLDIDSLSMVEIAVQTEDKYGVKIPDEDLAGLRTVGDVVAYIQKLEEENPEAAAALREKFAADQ

Biological target: Mycobacterium smegmatis mycobacterial membrane protein large 5 (MmpL5) transporter (M. smegmatis) (UniProt A0QS80)
Experiment: affinity purification with mass spectrometry; C-terminally His-tagged MmpL5 overproduced in M. smegmatis MC2-155, extracted with 1% LMNG, purified by Ni2+ affinity and Superdex 200; endogenous AcpM found in the sample by proteomics

binding: binds
Substance: Mycobacterium smegmatis meromycolate extension acyl carrier protein M (AcpM) (from UniProt A0R0B3 1-99)
